{"source": "paper doi:10.1101/826578", "key": {"[1]": {"molecular_target": "Flag-tagged human Timeless truncated at the PARP1-binding domain (PARP*) (human) (UniProt Q9UNS1)", "experiment": "co-IP"}, "[2]": {"molecular_target": "Flag-tagged human Timeless, wild type (pcDNA4-Flag-hTimeless) (human) (UniProt Q9UNS1)", "experiment": "co-IP"}, "[3]": {"molecular_target": "Flag-tagged human Timeless lacking the DNA-binding domain (ΔDBD) (human) (UniProt Q9UNS1)", "experiment": "co-IP"}, "[4]": {"molecular_target": "human Timeless, optimised construct (1-1208 with residues 239-330 replaced by a (Gly-Ser-Thr)2 linker) (human) (UniProt Q9UNS1)", "experiment": "co-purification"}}, "note": "No constants are given. Whether binding was seen depends on the method and setting. For some of these results: Binding seen in cells or lysates may run through a third protein. Some binding calls cover weakened binding; strength is not graded here.", "data": [{"binder": "human DDX11 helicase (pcDNA3-hDDX11) (enzyme, UniProt Q96FC9 1-970) MANETQKVGAIHFPFPFTPYSIQEDFMAELYRVLEAGKIGIFESPTGTGKSLSLICGALSWLRDFEQKKREEEARLLETGTGPLHDEKDESLCLSSSCEGAAGTPRPAGEPAWVTQFVQKKEERDLVDRLKAEQARRKQREERLQQLQHRVQLKYAAKRLRQEEEERENLLRLSREMLETGPEAERLEQLESGEEELVLAEYESDEEKKVASRVDEDEDDLEEEHITKIYYCSRTHSQLAQFVHEVKKSPFGKDVRLVSLGSRQNLCVNEDVKSLGSVQLINDRCVDMQRSRHEKKKGAEEEKPKRRRQEKQAACPFYNHEQMGLLRDEALAEVKDMEQLLALGKEARACPYYGSRLAIPAAQLVVLPYQMLLHAATRQAAGIRLQDQVVIIDEAHNLIDTITGMHSVEVSGSQLCQAHSQLLQYVERYGKRLKAKNLMYLKQILYLLEKFVAVLGGNIKQNPNTQSLSQTGTELKTINDFLFQSQIDNINLFKVQRYCEKSMISRKLFGFTERYGAVFSSREQPKLAGFQQFLQSLQPRTTEALAAPADESQASTLRPASPLMHIQGFLAALTTANQDGRVILSRQGSLSQSTLKFLLLNPAVHFAQVVKECRAVVIAGGTMQPVSDFRQQLLACAGVEAERVVEFSCGHVIPPDNILPLVICSGISNQPLEFTFQKRELPQMMDEVGRILCNLCGVVPGGVVCFFPSYEYLRQVHAHWEKGGLLGRLAARKKIFQEPKSAHQVEQVLLAYSRCIQACGQERGQVTGALLLSVVGGKMSEGINFSDNLGRCVVMVGMPFPNIRSAELQEKMAYLDQTLSPRPGTPREGSGGEPVHEGRQPVHRQGHQAPEGFCQRSAPGPAICPAPCPGQAAGLDPSPCGGQSYLWPRHCCCAEVSPGEVGLFLMGNHTTAWRRALPLSCPLETVFVVGVVCGDPVTKVKPRRRVWSPECCQDPGTGVSSRRRKWGNPE", "values": [{"measurement": "binding", "setting": "[1]", "value": "binds"}, {"measurement": "binding", "setting": "[2]", "value": "binds"}, {"measurement": "binding", "setting": "[3]", "value": "binds"}]}, {"binder": "full-length human Tipin (1-301) (protein, UniProt Q9BVW5 1-301) MLEPQENGVIDLPDYEHVEDETFPPFPPPASPERQDGEGTEPDEESGNGAPVRVPPKRTVKRNIPKLDAQRLISERGLPALRHVFDKAKFKGKGHEAEDLKMLIRHMEHWAHRLFPKLQFEDFIDRVEYLGSKKEVQTCLKRIRLDLPILHEDFVSNNDEVAENNEHDVTSTELDPFLTNLSESEMFASELSRSLTEEQQQRIERNKQLALERRQAKLLSNSQTLGNDMLMNTPRAHTVEEVNTDEDQKEESNGLNEDILDNPCNDAIANTLNEEETLLDQSFKNVQQQLDATSRNITEAR", "values": [{"measurement": "binding", "setting": "[4]", "value": "binds"}]}]}
